# Library screening results

Protein sequences, listed by entry. Tags and fused reporters are not part of them.
UniProt E9BF75, entry or part of it: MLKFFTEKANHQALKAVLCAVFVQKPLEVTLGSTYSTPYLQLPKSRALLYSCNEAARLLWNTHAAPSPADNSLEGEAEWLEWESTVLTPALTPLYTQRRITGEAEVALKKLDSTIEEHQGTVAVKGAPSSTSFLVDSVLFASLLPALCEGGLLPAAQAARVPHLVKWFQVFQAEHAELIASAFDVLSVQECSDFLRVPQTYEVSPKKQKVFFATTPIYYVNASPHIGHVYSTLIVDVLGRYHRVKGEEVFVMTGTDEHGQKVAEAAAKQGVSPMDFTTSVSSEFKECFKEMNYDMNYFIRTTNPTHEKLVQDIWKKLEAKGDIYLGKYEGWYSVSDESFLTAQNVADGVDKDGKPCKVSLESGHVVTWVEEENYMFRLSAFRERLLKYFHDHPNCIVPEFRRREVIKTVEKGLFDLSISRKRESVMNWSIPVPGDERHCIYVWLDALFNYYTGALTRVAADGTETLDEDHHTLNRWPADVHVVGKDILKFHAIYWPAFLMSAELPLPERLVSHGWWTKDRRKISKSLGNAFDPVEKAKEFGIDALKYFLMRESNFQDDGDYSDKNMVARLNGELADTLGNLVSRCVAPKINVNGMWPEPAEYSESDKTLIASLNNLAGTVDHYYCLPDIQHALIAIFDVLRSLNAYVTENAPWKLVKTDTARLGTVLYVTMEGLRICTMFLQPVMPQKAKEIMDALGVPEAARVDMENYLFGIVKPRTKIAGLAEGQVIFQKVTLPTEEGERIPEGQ

Source: ChEMBL document CHEMBL3988442, “University of Dundee, Small-Polar-MMV Screening Library” (2021).

Mtb heat-shock: 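Assay on Mycobacterium tuberculosis, filed only as a heat shock assay from Cornell; the read-out is not stated. The concentration is filed as 10 mM, unlikely as a test dose, so the dose is not known. Higher reads as stronger inhibition (inferred: compounds with an IC50 in retests scored well above the rest). Size under these conditions: about 69,000 compounds, about 930 of them at 50% or above in at least one test.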
LdMetRS: 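Primary screen of methionyl-tRNA synthetase; the read-out is not stated. Target: Methionyl-tRNA synthetase (putative), Leishmania donovani (UniProt E9BF75). The test concentration is not given. Values are per cent inhibition. Of about 68,000 compounds tested this way, about 24 (0.035%) reached 50% or more in at least one test.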
Mtb growth Cornell: 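Whole-cell assay for inhibitors of Mycobacterium tuberculosis growth, labelled Cornell in the record; the read-out is not stated. The concentration is filed as 10 mM, unlikely as a test dose, so the dose is not known. The record gives no direction; compounds strong in two other growth screens of this library score well above the rest, so higher reads as stronger inhibition. Size under these conditions: about 53,000 compounds, about 900 of them at 50% or above in at least one test.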

Results are percentages, as filed.
The record does not define 0% and 100%; most values in the screen are far below 50% and negative numbers occur (in some assays of this library far below -100).
The compounds are a random part of those screened.
A dash means the value is not listed here; it may have been measured.

compound,Mtb heat-shock,LdMetRS,Mtb growth Cornell
[H][C@@]12CS(=O)(=O)C[C@]1([H])N(S(=O)(=O)N1CCC(OC)CC1)CCN2CC,-0.2898%,-,4.229%
COCCn1ccnc1C1CCN(C(=O)CSc2nnc(C)o2)CC1,-7.682%,6.443%,-
CCc1nc(CN2CCCC(N(C)CCn3cncn3)C2)no1 (configuration not stated),24.74%,3.855%,1.603%
COc1cccc([C@@H]2CCN(Cc3[nH]nc(C)c3Cl)C[C@H]2O)c1,-20.23%,6.422%,-9.962%
Clc1ccccc1CCN1CCN(c2ccc3nncn3n2)CC1,33.42%,21.02%,-
O=C(O)C(F)(F)F.[H][C@@]12CCN(CC(C)C)C[C@@]1([H])[C@H](C(=O)N1CCCO1)CCO2,-22.87%,-,1.904%
COc1ccccc1-c1ncc(CN2CCC3(CCN(C)C3)CC2)cn1,-26.81%,21.96%,0.2769%
[H][C@@]12CCN(S(C)(=O)=O)C[C@]1(c1nnc(C)o1)CCO2,-10.32%,-,-21.29%
Cc1cnc(CNc2ccc(C(=O)NCc3ccco3)cc2C)o1,-14.07%,3.43%,-23.43%
COc1ncccc1CN1C[C@@H]2COC[C@]2(COCC(=O)N(C)C)C1,-,4.323%,-
CCc1noc(CN2CCN(C(=O)N(C)C)CC2)n1,-9.356%,-7.042%,-45.07%
CCS(=O)(=O)N1CCCC2(CCCC(=O)N2C)C1 (configuration not stated),13.37%,10%,-
[H][C@]12CC[C@]([H])(CN(C(=O)c3cccnc3)C1)N(Cc1ccc(F)cc1Cl)C2,-1.883%,-,15.17%
Cc1noc(CNc2cc3c(cc2Cl)OCCCO3)n1,-2.186%,1.242%,-
O=C(c1ccc2c(c1)[nH]c(=O)n2C1CCCC1)N1CCC1,12.83%,18.26%,-31.15%
O=C1CN(CC2CC2)Cc2nc(NCCc3ccccn3)sc21,-13.8%,5.583%,-47%
Cn1cc(CN(C(=O)c2ccc(O)c(Cl)c2)C2CC2)cn1,-0.3936%,18.58%,-16.89%
CN(CC1CCCO1)c1nc(-c2cccnc2)nc2c1CCNCC2 (configuration not stated),-30.46%,0.8219%,-
Cc1ccccc1C(=O)NCc1ccc(N2CCNC(=O)C2)c(F)c1,-2.401%,9.783%,-
CN(CC(N)=O)Cc1cc(Cl)cc2cccnc12,-4.717%,8.791%,0.7714%
O=C1CCCN1CCC1CCCCN1C(=O)c1ccc(SCCO)cc1 (configuration not stated),3.968%,2.821%,14.82%
CCc1c(C)n(C)c2nc3ccccc3n2c1=O,-10.91%,8.043%,-0.6898%
[H][C@]12CCC[C@@]1(COc1cccnc1)CN(Cc1cnn(C)c1)C2,2.223%,-,11.91%
Cc1ccc(-c2nnc(CNCCn3cccn3)o2)cc1,-12.57%,5.915%,-
CC(C)n1c(C2CCCN(CC(N)=O)C2)nc2ccccc21 (configuration not stated),-5.168%,-,-
O=C(c1cccnc1)N1CCC[C@]2(C[C@H](Oc3ncccc3F)CO2)C1,-,13.75%,-
Cl.OC1(c2ccc(F)cc2)CCN(Cc2ccccc2N2CCCC2)CC1,3.038%,-,-10.21%
Cc1n[nH]c(C)c1C1COCCN1c1ncnc2sccc12 (configuration not stated),-29.28%,11.14%,-4.412%
Cc1cccc(CN2CCc3onc(CN(C)C)c3C2)n1,20.17%,6.557%,16.75%
CS(=O)(=O)c1cc(Cl)cnc1C1CCN(C(=O)C2CCOCC2)CC1,-19.95%,3.738%,-21.5%
Cc1cc(S(=O)(=O)Nc2onc(C)c2C)c(C)s1,-13.68%,11.73%,-33.83%
Cc1noc(C)c1CSC1CCCN(c2cnn(C)c2)C1=O (configuration not stated),-14.51%,19.26%,22.73%
O=C(C[S+]([O-])Cc1csc(C2CCCC2)n1)NC1CCCC1 (configuration not stated),4.828%,8.992%,8.301%
CC(CC(=O)N1CCC(c2nnc3n2CCC3)CC1)n1cccc1 (configuration not stated),-1.034%,6.265%,-2.405%
COCCNc1ccccc1CNC(=O)NCc1ccc(C)s1,-31.94%,3.846%,2.357%
CN1[C@@H](C(=O)NCC2CC2)C[C@H]2CN(Cc3cccc(C#N)c3)C[C@H]21,-,14.42%,-
O=C1CCc2cc(S(=O)(=O)NCc3cc4n(n3)CCNC4)ccc2N1,9.025%,14.97%,-37.89%
COc1c(C2CCCN2C(=O)c2csc(C3CC3)n2)c(C)nn1C (configuration not stated),-23.51%,-1.994%,-20.11%
CC(C)N1CCC(Cc2cc(-c3cccc(C(=O)O)c3)ncn2)CC1,-9.007%,10.17%,16.73%
N#Cc1ncn(CCC(=O)Nc2ccc(Cl)cc2F)n1,-5.616%,14.5%,105.4%
CCC(CC)NC(=O)Cn1nc(C)nc1-c1ccccc1,5.769%,16.34%,3.428%
COc1ccc(OCCN(C)c2cc(C)nc(N)n2)cc1,-0.748%,3.876%,-15.33%
CC(=O)Nc1nc(C(=O)N2CCCC(n3ccnc3C)C2)cs1 (configuration not stated),-10.9%,13.71%,-71.2%
Cc1ccccc1CNC(=O)Cn1ncc2c1c(C)nn2C,0.07052%,0.2513%,-
CCS(=O)(=O)N1C[C@H]2CN(Cc3cccc(F)c3)C(=O)[C@H]2C1,-,9.934%,-
O=S(=O)(CC1CCCCO1)Nc1c(F)cccc1-n1cccn1 (configuration not stated),-3.697%,19.62%,-
CCn1ccnc1CN1CCCN(C(=O)c2scnc2C)CC1,11.88%,9.474%,-
COCCN1CCC2(CC1)CN(CCn1cccn1)C(=O)CO2.O=C(O)C(F)(F)F,-11.39%,-,3.497%
Cc1cc(C)n(CC2CCCCN2C(=O)c2cnn(C)c2)n1 (configuration not stated),-5.4%,11.89%,-
NC1CCCN(C(=O)c2csc(-c3ccc(C(F)(F)F)cc3)n2)CC1 (configuration not stated),22.12%,9.779%,-8.791%
CC1CCN(CCNC(=O)c2scnc2Cl)CC1,-18.93%,10.86%,-37.51%
Cc1nc(CN2CCN(CCCc3nc4ccccc4o3)CC2)no1,-44.2%,3.971%,6.774%
CN(CC(=O)NC(c1ccc(F)cc1)C(F)(F)F)S(C)(=O)=O (configuration not stated),-5.412%,15.16%,15.6%
O=C(O)C(F)(F)F.[H][C@@]12CCN(Cc3ccco3)[C@]1([H])CC[C@@H](C(=O)NCC1CC1)O2,-27.84%,-,-
CCc1cc(C(=O)N2CCc3nc4c(C)csc4c(=O)n3CC2)on1,-18.62%,8.706%,-
COCCN(C)C[C@@H]1CN(C(=O)c2ccc(O)c(Cl)c2)C[C@@H]1CO,21.09%,10.7%,4.253%
O=C(Nc1cccnc1)c1nn(C2CCS(=O)(=O)C2)c2c1CCCC2 (configuration not stated),-18.07%,10.76%,24.63%
COc1ccc(-c2ccc(C(=O)N3CCOCC3CC(N)=O)o2)cc1 (configuration not stated),-6.814%,11.04%,-17.15%
CCCNC(=O)CNC(=O)CC1CCCc2cc(OC)ccc21 (configuration not stated),-108.2%,10.57%,-
CN1CC(=O)N(c2cccc(F)c2)CC12CCN(Cc1cncn1C)C2.O=C(O)C(F)(F)F.O=C(O)C(F)(F)F (configuration not stated),-2.903%,-,23.66%
Cc1cccc(-c2[nH]ncc2CNCC2CCN(CC(C)O)CC2)c1 (configuration not stated),8.291%,15.03%,-6.081%
Cc1nn(C2CCS(=O)(=O)C2)c(O)c1CCc1ccccc1 (configuration not stated),-16.73%,10%,6.158%
Cc1nc(C)n(CC2CCCN(Cc3ccc(C(N)=O)cc3)C2)n1 (configuration not stated),8.14%,18.06%,-
[H][C@@]12CCN(C[C@@H]1CN1CCOCC1)[C@@H](CNC(=O)Nc1ccsc1)C2,-20.4%,-,-
Cc1cccc(-c2nc(CNC3CCc4ncnn4C3)no2)c1 (configuration not stated),-22.74%,17.6%,12%
O=C(O)C(F)(F)F.O=C(O)C(F)(F)F.O=C(O)C(F)(F)F.[H][C@@]12CN(Cc3cccnc3)C[C@]1([H])OCCN2c1ccc(C)nn1,-30.09%,-,-8.344%
CN(C)C(=O)c1cccc(CCNc2ccccc2S(C)(=O)=O)c1,-6.783%,-7.692%,-
CCn1c(C2CCCN(Cc3ccc(F)cc3Cl)C2)nn(C)c1=O (configuration not stated),-6.022%,0%,-
Cn1cnc2c1CCN(CC(O)c1ccc(S(C)(=O)=O)cc1)C2 (configuration not stated),0.7634%,6.923%,-30.21%
O=C(NC[C@H]1OC[C@@H](NC2CCCCC2)[C@@H]1O)Nc1ccccc1,-30.85%,-3.729%,-26.97%
Cc1cccc2nc(CSCc3nnnn3C(C)C)cn12,-6.707%,7.205%,-14.31%
COc1ccc(CC(=O)NC2(C)CCS(=O)(=O)C2)cc1F (configuration not stated),-7.923%,16.78%,-
CCCN(CCN(C)C)C(=O)Cc1cn2ccsc2n1,-21.88%,-5.753%,-
Cc1c(Cl)cccc1OCC(=O)NC1(C#N)CCSC1 (configuration not stated),-9.825%,-1.242%,-
CC(=O)N1CCCN(C(=O)c2csc(-c3ccc(C)cc3C)n2)CC1,4.579%,16.19%,26.57%